Test results as given in article PMC4022373.
Results are given in words; binding and its absence hold for the method and conditions named. In cells and extracts the contact can be indirect. Some entries that bind do so weakly or less than the wild type.

Sequences of proteins named here, by UniProt entry; tags and fusion partners are left off. Residues count along the entry.
UniProt P46821, residues 2207-2468: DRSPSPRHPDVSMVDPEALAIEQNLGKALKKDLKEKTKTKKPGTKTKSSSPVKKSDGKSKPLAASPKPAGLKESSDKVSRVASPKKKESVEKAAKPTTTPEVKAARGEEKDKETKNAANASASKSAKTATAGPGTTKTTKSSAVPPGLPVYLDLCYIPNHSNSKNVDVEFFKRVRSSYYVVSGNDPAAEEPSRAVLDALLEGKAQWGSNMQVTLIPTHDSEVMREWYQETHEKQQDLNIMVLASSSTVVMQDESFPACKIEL
UniProt Q5S007, residues 1879-2138: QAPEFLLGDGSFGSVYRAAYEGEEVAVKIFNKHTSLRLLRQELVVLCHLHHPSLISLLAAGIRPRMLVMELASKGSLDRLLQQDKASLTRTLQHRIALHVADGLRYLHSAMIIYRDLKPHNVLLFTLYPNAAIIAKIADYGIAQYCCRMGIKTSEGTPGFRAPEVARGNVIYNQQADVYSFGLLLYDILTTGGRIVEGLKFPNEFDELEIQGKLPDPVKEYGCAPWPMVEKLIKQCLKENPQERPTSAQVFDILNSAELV

Molecular target: LC1-GST (human) (UniProt P46821)
Experiment: pull-down; purified LC1-GST (and GST) added to lysate of LRRK2 kinase myc-transfected SKNSH, incubated at 4°C for 2 hours; detection with anti-myc antibody; only the target purified

**Q.** Which binding does the source give for “LRRK2 kinase myc (from UniProt Q5S007 1879-2138) (domain or fragment)” here?
**A.** binds
